Results from PMC10964525.
For at least one entry, the source does not settle the construct or the ends of the probe. Where cells or extracts were used, other partners may take part. Negatives hold for the conditions tested. At least one verdict was read from the data and is not stated in words by the source.

Experiments:
[1] = target: EGFR (endogenous, on A431 / BT-474 cells, EGFR+/PDGFRb-) (human) (UniProt P00533); experiment: confocal uptake of aptamer-nanoparticles by cells; conditions: A431 and BT-474 cells, 60 min, multivalent nanoparticle; 2'-fluoro pyrimidines; 5' NH2-C6 amide-linked to nanoparticle; Cell uptake only (no purified-protein binding): culture medium, 37 C, 30-60 min, nanoparticles at 5 uM Iren; protein on the cell surface; label: Iren-AuSiO2 nanoparticle (Ir luminescence)
[2] = target: PDGFRbeta (endogenous, on adipose-derived MSCs, EGFR-/PDGFRb+) (human) (UniProt P09619); experiment: confocal uptake of aptamer-nanoparticles by cells; conditions: MSCs, 60 min, multivalent nanoparticle; 2'-fluoro pyrimidines; 5' NH2-C6 amide-linked to nanoparticle; Cell uptake only (no purified-protein binding): culture medium, 37 C, 30-60 min, nanoparticles at 5 uM Iren; protein on the cell surface; label: Iren-AuSiO2 nanoparticle (Ir luminescence)

Sequence	binding result [1]	binding result [2]
GCCUUAGUAACGUGCUUUGAUGUCGAUUCGACAGGAGGC [CL4]	binds	no binding
UUCGUACCGGGUAGGUUGGCUUGCACAUAGAACGUGUCA [Scr (scrambled CL4)]	no binding	no binding
UGUCGUGGGGCAUCGAGUAAAUGCAAUUCGACA [Gint4.T]	no binding	binds
